The record followed here is patent US20230242640A1.

Results are given in words; binding and its absence hold for the method and conditions named. Some binding calls cover weakened binding; strength is not graded here. Tags and fused reporters may be left off the sequences shown.

The target of this test is T1, peptide human SIRPgamma …-6His (human).
T1 sequence (peptide): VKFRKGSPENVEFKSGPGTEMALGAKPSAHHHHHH
As to the kind of experiment: ELISA on coated peptide SIRPg-His.

B1: anti-SIRPg antibody A1 (antibody, human IgG4 S228P, kappa, V domains shown)
VH: EVQLVESGGGVVRPGGSLRLSCAASGFTFDDYGMSWVRQAPGKGLEWVSGINWNGGSTGYADSVKGRFTISRDNAKNSLYLQMNSLRAEDTAVYYCARWIAKVWGQGTLVTVSR
VL: SSELTQDPAVSVALGQTVRITCQGDSLRSYYASWYQQKPGQAPVLVIYGKNNRPSGIPDRFSGSSSGNTASLTITGAQAEDEADYYCNSRDSSGNHVVFGGGTKLTVLR
B1: the binding entry is reported as “binds”.

B2: anti-SIRPg antibody A5 (antibody, human IgG4 S228P, kappa, V domains shown)
VH: EVQLVESGGGVVRPGGSLRLSCAASGFTFDDYGMSWVRQAPGKGLEWVSGINWNGGSTGYADSVKGRFTISRDNAKNSLYLQMNSLRAEDTAVYYCARQMVKLWGQGTLVTVSR
VL: SSELTQDPAVSVALGQTVRITCQGDSLRSYYASWYQQKPGQAPVLVIYGKNNRPSGIPDRFSGSSSGNTASLTITGAQAEDEADYYCNSRDSSGNHVVFGGGTKLTVLR
For the molecule B2, the binding result is reported as “binds”.
